Here are results for 39 compounds from PubChem BioAssay AID2685 (National Center for Advancing Translational Sciences (NCATS), 2010).

The list shows a part of the results. Shown are side measurements of this screen, not its main read-out; they come without a call. Most of these compounds were active or inconclusive in the main read-out, so they are no random draw. Potencies come from curve fits of mixed quality, noted in brackets.

The nature of the assay: qHTS Assay for Lipid Storage Modulators in Drosophila S3 Cells.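 As to cell number change: cells counted by Cell Tracker Red CMTPX staining in the red channel.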 Conditions: BODIPY lipid droplet fluorescence, 18-24 h; for cell number change: measured here: cell count max response, cells fed with added oleic acid. Put shortly: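 Laser-scanning cytometry quantifies lipid droplet accumulation (500–530 nm total intensity; droplet/cell object ratio) in oleic acid-fed (400 uM added) Drosophila S3 cells treated with a concentration series. 20 uM Triacsin C defined 100% inhibition.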

Setting [1] is: measured here: lipid fluorescence (Fed channel) AC50, cells fed with added oleic acid.
The mark [2] stands for this setting: measured here: cell number channel AC50, cells fed with added oleic acid.

Regarding `Nc1cccc2c1C(=O)N(CCOc1ccccc1F)C2=O`, the cell number change was found to be 7.66%.
In general, AC50 refers to the midpoint of the concentration-response curve, whichever way the signal moves. High values mean activity only at high concentration, low ones activity at low concentration. Take `O=C(COc1ccc(F)cc1)N(Cc1ccc(Cl)cc1)C1CCS(=O)(=O)C1` (stereo not given): the cell number change is 7.16%. Further, the AC50 under setting [1] is 6.51 µM [falling, single point].
In the case of `NS(=O)(=O)c1ccc(NC(=O)NC2CC(=O)N(c3ccc4c(c3)OCCO4)C2)cc1` (stereo not given), the cell number change was -15.5%.
Take `COc1ccccc1NC(=O)CN(c1ccccc1OC)S(=O)(=O)c1ccccc1`: the cell number change was -0.246%. Moreover, the AC50 under setting [1] is 20.6 µM [falling, single point].
For `CCc1ccc(OCC(=O)NC(C)(C)C)cc1`, the cell number change was -23%. In addition, under setting [1], the AC50 was 6.51 µM [falling, partial curve, poor fit].
As for `COc1ccccc1C(C)Nc1ccc(S(=O)(=O)N2CCN(C)CC2)cc1[N+](=O)[O-]` (stereo not given), the cell number change was -11.8%. Further, the AC50 under setting [1] was 0.146 µM [falling, full curve, poor fit].
Consider `CCCCCC(=O)N1CCCCC1`, for which the AC50 under setting [2] is 0.58 µM [falling, single point].
Turning to `Cn1nc(CC(=O)NCc2cccc3ccccc23)c2ccccc2c1=O`, the AC50 is, setting by setting: under setting [2], 2.91 µM [rising, single point]; under setting [1], 1.46 µM [rising, partial curve].
For `CCOc1ccc(NC(=O)CCCc2cc(-c3ccc(OCC)cc3)on2)cc1`, the cell number change turned out to be 31.7%.
On to `COc1cc(OC)cc(C(=O)NCC2CCCO2)c1` (stereo not given), for which the cell number change is -34.6%. The AC50 under setting [2] was 32.6 µM [falling, partial curve].
Consider `COc1ccc(OC)c2c1sc(=NC(=O)c1cccc(N3C(=O)CCC3=O)c1)n2C`, for which the cell number change is -86.2%. For the same compound, under setting [2], the AC50 was 29.1 µM [falling, single point]. Besides, the AC50 under setting [1] was 23.1 µM [falling, single point].
In the case of `CC1=CC(C)(C)n2c(O)c(N=N)c3c(C)ccc1c32`, the cell number change is -42%. Further, the AC50 under setting [1] was 14.6 µM [falling, partial curve, poor fit].
Turning to `Cc1ccc2cc(C=O)c(N(C)C)nc2c1`, the cell number change turned out to be 9.37%. Under setting [1], the AC50 is 9.2 µM [falling, partial curve, poor fit].
Consider `CSc1ccc(/C=N/n2c(C)nnc2C)cc1`, for which the cell number change was -18.7%.
As for `Cc1ccsc1C(=O)OCC(=O)Nc1cccc(S(=O)(=O)N2CCOCC2)c1`, the cell number change was -21.9%. Under setting [1], the AC50 was 18.4 µM [falling, single point].
As for `CN(CCc1ccccn1)C(=O)CN(C)S(=O)(=O)c1ccc2c(c1)c(=O)n(C)c(=O)n2C`, the cell number change came out at 7.36%.
Regarding `CN(C(=O)C(C)(C)C)C1c2c(ccc3ccccc23)OCC1CO` (stereo not given), the cell number change was -27.7%. The AC50 under setting [1] is 29.1 µM [falling, single point].
Regarding `Nc1ccc2oc(-c3cc(Br)ccc3Cl)nc2c1`, the cell number change was -5.1%. Also, the AC50 under setting [1] is 1.64 µM [rising, full curve, poor fit].
With `CC(=O)Nc1cccc(OCCCNS(=O)(=O)c2ccc(F)cc2)c1`, the cell number change is -41.1%. For the same compound, under setting [2], the AC50 is 6.51 µM [falling, full curve]. Further, the AC50 under setting [1] is 7.31 µM [falling, partial curve].
As for `O=C(Nc1ccc(F)cc1F)c1ccc2c(=O)n3c(nc2c1)CCC3`, the cell number change is -2.67%. Further, the AC50 under setting [1] was 29.1 µM [falling, single point].
`O=C(CN1CCCCC1)NC(=O)NCc1ccccc1`: the cell number change was -7.33%. Moreover, the AC50 under setting [1] was 29.1 µM [falling, single point].
`COC(=O)NC(=S)Nc1ccc(Oc2ccc(Cl)cc2)c(Cl)c1`: the cell number change came out at 2.89%. Further, the AC50 under setting [1] is 2.06 µM [rising, partial curve].
For the compound `COc1ccc(NC(=O)Nc2cccc(C(F)(F)F)c2)cn1`, under setting [2], the AC50 was 0.58 µM [rising, single point].
Consider `CC(=O)Nc1ccccc1NS(=O)(=O)c1ccc(Cl)cc1`, for which the cell number change turned out to be 73.5%. Further, the AC50 under setting [2] was 9.2 µM [rising, partial curve].
For `Oc1c(CN2CCOCC2)cc(COCc2ccccc2)c2cccnc12`, the cell number change is -10%. For the same compound, the AC50 under setting [1] was 16.4 µM [falling, single point].
As for `COc1ccc(NS(=O)(=O)c2cc(NC(=O)c3ccco3)ccc2N2CCCCC2)cc1`, the cell number change was -9.77%. Moreover, the AC50 under setting [1] was 4.61 µM [falling, single point].
Consider `COc1ccccc1Oc1ccc(Oc2ccccc2OC)cc1`, for which the cell number change is -9.65%. For the same compound, the AC50 under setting [1] was 0.517 µM [falling, partial curve, poor fit].
For `CN(C)/C=C/C(=O)c1ccc(Br)cc1`, the cell number change was -40.1%. Moreover, under setting [2], the AC50 is 29.1 µM [falling, single point]. Also, the AC50 under setting [1] is 0.461 µM [falling, full curve].
Take `Cc1nnsc1C(=O)NNS(=O)(=O)c1cc(C(F)(F)F)cc(C(F)(F)F)c1`: the cell number change is -46.2%. For the same compound, the AC50 under setting [2] is 29.1 µM [falling, single point]. Besides, under setting [1], the AC50 was 18.4 µM [falling, single point].
In the case of `COc1ccc(-c2nc(SCC(=O)N3CCOCC3)n[nH]2)cc1`, the cell number change amounted to 30.1%.
`O=C(c1ccc2snnc2c1)N1CCOCC1`: the cell number change is -5.56%. Under setting [1], the AC50 is 0.13 µM [falling, single point].
With `CC1=CC(=O)CC2C1(C)CCC(C)C2(C)CCC(C)CC(=O)O` (stereo not given), the cell number change was -1.78%. Under setting [1], the AC50 was 0.00651 µM [falling, full curve, poor fit].
As for `COc1cccc(CNC(=O)Cc2c(C(=O)O)[nH]c3ccccc23)c1`, the cell number change was -22.8%. Besides, under setting [2], the AC50 was 6.51 µM [falling, single point]. Also, under setting [1], the AC50 was 6.51 µM [falling, single point].
For `CCCOc1ccc(C(=O)NC(=S)Nc2nc(C)c(C(=O)N(C)C)s2)cc1`, the AC50 was 1.84 µM [rising, partial curve, poor fit] under setting [2] and 6.51 µM [rising, single point] under setting [1].
For `COc1cccc(C2=NOC(C(=O)Nc3c(C)n(C)n(-c4ccccc4)c3=O)C2)c1` (stereo not given), the cell number change stood at 9.24%. Also, the AC50 under setting [1] was 0.411 µM [falling, full curve].
Take `O=c1[nH]c2ccc(Br)cc2c(-c2ccccc2)c1N1CCOCC1`: the cell number change was 8.59%. Besides, under setting [2], the AC50 was 2.59 µM [rising, single point]. Further, under setting [1], the AC50 was 6.51 µM [rising, partial curve].
As to `O=C1CC(c2ccccc2)n2nc(N3C(=O)c4ccccc4C3=O)nc2N1` (stereo not given), the cell number change is -11.8%.
As for `CS(=O)(=O)Nc1ccc(C(=O)CC(=O)Nc2ccc([N+](=O)[O-])cc2)cc1`, the cell number change was found to be 3.23%. Also, the AC50 under setting [1] is 29.1 µM [rising, single point].
`Cc1cccc(NC(=O)c2ccc(OCc3c(C)noc3C)cc2)c1`: the cell number change turned out to be 5.56%. The AC50 under setting [1] was 0.366 µM [rising, partial curve, poor fit].
